For 1 substance, binding results are on record in publication PMC10800076.

By UniProt entry, the sequences of proteins in these tests, tags left out. Residues count along the entry.
UniProt P25311, residues 21-298: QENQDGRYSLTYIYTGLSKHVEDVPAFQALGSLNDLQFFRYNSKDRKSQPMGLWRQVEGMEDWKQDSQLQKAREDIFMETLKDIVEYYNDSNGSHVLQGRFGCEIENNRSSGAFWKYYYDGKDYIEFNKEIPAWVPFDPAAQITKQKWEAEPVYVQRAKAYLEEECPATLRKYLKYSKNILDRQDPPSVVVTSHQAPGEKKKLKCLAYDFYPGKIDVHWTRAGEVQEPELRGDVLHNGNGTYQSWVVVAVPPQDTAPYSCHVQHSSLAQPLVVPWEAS

These are yes or no findings as the source states them, for the method shown. In cells and extracts the contact can be indirect. These calls come from enrichment with a bait or labelling near it, and not all partners need be listed. Tags and fused reporters may be left off the sequences shown.

The experiment has as its target T1, MIIP with Streptavidin tag (S) and Flag tag (F), in pcDNA3.1(+) (human) (UniProt Q5JXC2).
T1 sequence: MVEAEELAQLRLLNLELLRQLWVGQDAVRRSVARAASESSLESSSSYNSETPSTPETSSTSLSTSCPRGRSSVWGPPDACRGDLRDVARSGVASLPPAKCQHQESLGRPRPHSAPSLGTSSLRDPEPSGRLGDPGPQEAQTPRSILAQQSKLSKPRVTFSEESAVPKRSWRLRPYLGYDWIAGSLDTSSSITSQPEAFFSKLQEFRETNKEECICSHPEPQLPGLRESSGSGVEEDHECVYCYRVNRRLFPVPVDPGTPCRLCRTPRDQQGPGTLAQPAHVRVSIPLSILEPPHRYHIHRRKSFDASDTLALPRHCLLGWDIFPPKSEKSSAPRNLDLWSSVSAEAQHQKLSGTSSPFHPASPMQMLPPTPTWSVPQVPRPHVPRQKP
The experiment can be described thus: affinity purification with mass spectrometry; tandem affinity purification of MIIP and mass spectrometry of associated proteins; cells not given.

In the case of “AZGP1 (alpha-2-glycoprotein 1, zinc-binding), endogenous (from UniProt P25311 21-298)”, the binding entry was “binds”.
